For 107 sequences, z-score results are on record in PubChem BioAssay AID1508600 (Functional Genomics Laboratory (NCATS/FGL), 2020).

Among all 53,000 sequences or so, about 3,700 (7%) were called active.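 How the source made its calls: active means gene knockdowns whose robust z-score for IL-1 alpha signal is at least 2 or at most -2, so actives lie on both sides; inactive means the rest.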 The list shows a part of the results.

The assay is described as follows: Components of the Cytosolic LPS Sensing Pathway: Gene Identification via Genome-wide siRNA Screen.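 Further: robust z of the log signal after scaling to non-targeting control siRNA wells of the plate.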 Conditions: RAW264.7 macrophages, IL-1a HTRF, actives lie on both sides, screened at 100 nM (by protocol), cells primed 5 h with Pam3CSK4 first. In outline:
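Read-out: IL-1a HTRF on supernatant, divided by plate negative-control median ×100, log-transformed and converted to robust z-score. Cells were RAW264.7 given 100 nM siRNA, Pam3CSK4-primed 5 hours, then LipidA-transfected 24 hour.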
(TR-FRET usually uses a lanthanide donor and a delayed reading to cut background.)
Turning to GAUUGUUGCACGGCUGAAGTT against Cxcl12, the z-score was inactive: 1.68.
Regarding CCAAGAUCACUCCUGAAAGTT against Gm9991, the z-score is inactive: -0.386.
In the case of GGCAGUCAAUAGUGGCCUGTT against Bcor it was inactive: 1.12; in that of GCUCGCACAUUUGACUUGGTT against Wdr70, inactive: 0.807; in that of GCUUAAGUGUGAUACAGUGTT against Rars2, active: 2.45.
CGUACUUUAGGCAACCUAATT against Tmtc4: the z-score is inactive: 0.366.
In the case of GGAAUGUCAGUCAACACCGTT against Tfap2b, the z-score was inactive: 0.521.
Consider CCUGUGGUGUUAAUAAGAUTT against Simc1, for which the z-score was inactive: 0.445.
As to GGUCCUCAAGCUCAUGGAUTT against Rogdi, the z-score is inactive: 0.327.
Take GAAUUGGACAACUUUCUCCTT against Olfr8: the z-score was inactive: -1.3.
In the case of GUUGUAAUUGGUUAUGUGCTT against Pigp it was inactive: 0.472; in that of GGGUCAUGUUAACUCUAAATT against Nobox, inactive: -0.285; in that of GGGCUUUUGUUUUGAAACATT against Smc1b, inactive: -1.42.
Consider CGGCGUGCACUCUGGAUAATT against C2cd5, for which the z-score was inactive: -1.63.
On to GGCCAAAACCACAAAGAAGTT against Rpl36al, for which the z-score was inactive: -1.07.
Take GCAGGAACCAUACUCUACATT against Adap1: the z-score is inactive: 0.0843.
As to GCGUAUGACAUAAAGAUAGTT against Ctbs, the z-score is inactive: -0.315.
In the case of GAUACUCUUUGGGCCAUUGTT against Vmn2r42 it was inactive: -0.444; in that of GCACUAAAGAAGUUACUGCTT against Olfr126, inactive: 0.377.
In the case of GGUUUGGUACAUUUGCAUCTT against Olfr616, the z-score is inactive: -0.661.
As for GCUGAAUGAUAUGGAACCUTT against Vapa, the z-score was inactive: -1.76.
On to GCCAGAUUGUGGUCAUGACTT against Olfr365, for which the z-score was inactive: 0.5.
For the sequence GGAUUAACUCUUGAAAGUUTT against Cd4, the z-score is inactive: 0.59.
In the case of GCCAUUACAAGUGAUAUAATT against Ufl1 it was inactive: 0.268; in that of GCCGCCAAGUUUCGAUUCGTT against Htr5b, inactive: 1.46; in that of GCUCCAUUUGAGGAACAAGTT against Zfp277, inactive: -1.08.
For the sequence CCCUGAGAUAGGCAAUGUGTT against Tceanc2, the z-score was inactive: -1.57.
In the case of CCUUCAGGGUGCUUCUCUATT against Mrgpra6 it was inactive: -0.644; in that of CGUACAGUGAUGAUUUUGATT against Cep162, inactive: 0.218.
Take GGUAGACAGAGAAGAUAAATT against Slc35f5: the z-score is active: -2.01.
GGAUCUGGCAUUCAGAUAATT against Azin1: the z-score was inactive: 0.414.
In the case of GGAGUUUGGAACUUCCAACTT against Tcf21 it was active: 2.79.
In the case of CCCUUCAGCACGAUGAAAATT against Wdr95 it was inactive: -0.19; in that of GCUUGAUUUUGAAUAACACTT against Tas2r116, inactive: -0.316.
With “CCGUUUCAGAUUCCUAUCATT against 4930524B15Rik”, the z-score is inactive: -0.435.
GGGAAAACCUCUUCUGUGUTT against Olfr904: the z-score is inactive: 0.0564.
As to GGAAGAUUCCGACUUUAUUTT against Irs4, the z-score was inactive: 0.69.
Consider GCUUAUUUAAUGCAUCAGGTT against Avil, for which the z-score was inactive: 0.968.
For GGUGAUUUAUUCAGUUCAATT against Lmbrd2, the z-score is inactive: -1.13.
Take GGGAAGAGCUAGCACUGAATT against Phox2b: the z-score is inactive: -1.86.
In the case of CCUCACCUUAAGUGUGUCATT against Sdhaf4 it was inactive: -0.277.
On to GGUGACAGAUUCUUUGAGGTT against Tti2, for which the z-score is inactive: 0.704.
In the case of GUACAUGUCGAUGGCAGUCTT against Fthl17e it was inactive: 0.648; in that of GGCUAAAGAGUCCUCGGUGTT against Serpina5, inactive: 0.594.
In the case of AACAGAUCUUCUCUGGUCCTT against Klra15 it was active: -2.47.
In the case of CCAGUGACACCUUAAAACCTT against Setbp1, the z-score was inactive: -0.585.
Consider GGGAGAUUUUAGGUUUGGATT against Bhlha9, for which the z-score was inactive: 0.217.
Turning to CCUGGGAGCCUAUUAUUCUTT against Ndufb10, the z-score is inactive: -0.032.
For GAGGACAUGGCCAGAUACUTT against Npy, the z-score was inactive: -0.502.
GGACAACGGAUUUUAGGAGTT against Barhl2: the z-score was inactive: 0.44.
Consider CCUCUCUAUCUCUGACAUGTT against Olfr960, for which the z-score is inactive: 0.476.
For GCCCAUCACUUAUAGUGGGTT against Usf2, the z-score was inactive: -0.799.
In the case of GGAGCACUGUCCUUAAACATT against Cxcl16 it was inactive: 0.189.
As to CCAGAUUAGGCUAAUAGAATT against Lrsam1, the z-score was inactive: 0.555.
As to CCCAUGUGCGAUGAAACUUTT against Nudt3, the z-score was inactive: 0.716.
As to CGGAGAGGAUUUCAUCGAATT against Azgp1, the z-score is inactive: 0.0877.
For the sequence GGAAAUCAAAGAGAAAGUUTT against Rassf3, the z-score is inactive: -0.748.
For the sequence GUGUAAAAGUGCAAAGAGATT against Klra7, the z-score is inactive: -0.536.
In the case of GGAACUUUUUCAGAUGCAGTT against Ndnf, the z-score was inactive: 0.108.
In the case of CCUGAAAGAACGGGAGUAGTT against Mab21l2 it was inactive: -0.415; in that of GUGACAAAAACAUCCAAGCTT against Olfr456, inactive: -1.23; in that of GGAGCAGUAUGAAAGGGAUTT against Trap1a, inactive: -1.35.
Regarding GGUCUGUAAGCUACCUAAUTT against Mageb18, the z-score was inactive: 1.28.
For CGUAGAGAUCAGUUCAAUGTT against Clock, the z-score was inactive: -1.36.
In the case of GGACUCAAGGACAAACAGUTT against Heg1, the z-score was inactive: -1.38.
On to GGAGAUCUAUUACCACGGATT against Arrb1, for which the z-score is inactive: 0.484.
As to GGAUAGGGCAUGGAAAUCCTT against Scnn1g, the z-score was inactive: -0.589.
In the case of GGACAUCGAGCUUCAGAUCTT against Dnm1l it was active: 2.68.
On to CGUACUCUUGGAGAGGAUUTT against Sva, for which the z-score was inactive: -0.89.
Turning to GGAGACUGAAGUCCAUCAATT against Atp5c1, the z-score is inactive: 0.685.
For GCUGGACACGGAAGGUAUATT against Igsf8, the z-score was inactive: -0.595.
For the sequence CGACUCCGGCAUCUAUGAUTT against Cmklr1, the z-score is inactive: -0.409.
As for “GGGCUGGGAGACAAAGAAATT against A130050O07Rik”, the z-score was inactive: 0.523.
In the case of GCCCAUGGACACAUCCAGUTT against Slc8b1, the z-score is inactive: -0.512.
As for GCAAAGAUUGUUUUUGCUGTT against Oat, the z-score was inactive: 0.3.
Regarding CGAGGAGAUCAGCUACUUUTT against Lin7c, the z-score was inactive: 0.866.
On to CCUGCUGAAAUAUCAUAAATT against Zfp607b, for which the z-score is inactive: 0.262.
In the case of GGCAUAUCAACUGUCGUUCTT against Cyp2r1 it was inactive: -1.23; in that of GGUACUUUCGGACUCAGUUTT against Ipp, inactive: -0.0605.
With GGGUUUCUCCAGUAUGCAUTT against Mr1, the z-score is inactive: -0.335.
In the case of GCUUGCAUAAAUUGCUAAATT against Xrcc4 it was inactive: 1.94; in that of GCCUCUUUGAUAGCAAAAGTT against Cct6a, inactive: -0.663; in that of GGAUAAACUUAAACAACUCTT against Tnpo2, inactive: -1.25.
In the case of GGAAAAGCUGAAGGAAAAUTT against Mcmbp it was inactive: 1.25; in that of CCCUAAAAACACCUGAGAGTT against Vsig4, inactive: 0.961; in that of GGAACAUUGGUGUUACAGCTT against Atp5j, active: 2.29.
In the case of GGACCGGUGUCUAAUCAGCTT against Capn10 it was inactive: 1.75.
Turning to GGACGAAUGCUCAGGAGGUTT against Hmcn2, the z-score is inactive: 1.1.
In the case of GGAACUAGGACUAAACAACTT against Lrrn2, the z-score was inactive: 1.32.
For the sequence GGAAGUGGACGUGAAACCCTT against Btg3, the z-score was inactive: 0.15.
For GGUGCAGACCAACAAGACATT against Gm9946, the z-score was inactive: -0.445.
In the case of GCAAGUUAAGGAUAUCAUGTT against Katna1, the z-score is inactive: 1.2.
Turning to GCUUGUUCGGGAAUCUUAUTT against Olfr292, the z-score was inactive: 0.116.
For GGUGAGACAAAGGAACAAGTT against Tmem100, the z-score is inactive: -1.23.
With CCUAAUCAGCAAACCAGGUTT against Magee2, the z-score is inactive: -1.63.
For the sequence GGUGUUUGGGCGGUUUGAATT against Snx15, the z-score was active: -2.25.
For the sequence GGAUUAGAAUGUCAUGUCUTT against Ddx20, the z-score is inactive: -1.28.
In the case of CGACGAACGGGUAAAAGGUTT against Pcdha4, the z-score is inactive: -0.207.
In the case of GGGCGAUGAAGAAGAGAAATT against Smad1 it was inactive: -0.443; in that of GCAUUCAAUGUUCUUAAGCTT against Tmc3, inactive: 0.845; in that of GGCGACAGGUCCUGUAAUGTT against Ddx56, inactive: 0.891.
Regarding GCGGAAUUUGGUUUCUAUUTT against Etv2, the z-score was inactive: -0.432.
Take GGACAUGAAAGAAACGGUGTT against Bbc3: the z-score is inactive: -0.282.
As to GUGCCUCUCAUCACUAUCUTT against Olfr571, the z-score is inactive: 0.501.
As to GGUUUGUAGACGACAAUCUTT against Insig1, the z-score is inactive: -0.128.
Take GGCCGAGUCAAGAAUCUUUTT against Tvp23b: the z-score was inactive: 0.696.
Consider CAGCAUCAAGCAGAAAAGATT against Gm5458, for which the z-score was inactive: -1.4.
